# Experimental data reported in the supplement of paper PMC10849652.
# Protein sequences, listed by entry. Tags and fused reporters are not part of them. Lines headed by an entry give the natural chain unless they say otherwise; changes in a name come on top.
# UniProt Q9NRG0: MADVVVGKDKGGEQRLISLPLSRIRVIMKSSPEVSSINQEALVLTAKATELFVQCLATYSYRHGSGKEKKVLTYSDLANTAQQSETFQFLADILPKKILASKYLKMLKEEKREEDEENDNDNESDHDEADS
# UniProt Q8N4Q1: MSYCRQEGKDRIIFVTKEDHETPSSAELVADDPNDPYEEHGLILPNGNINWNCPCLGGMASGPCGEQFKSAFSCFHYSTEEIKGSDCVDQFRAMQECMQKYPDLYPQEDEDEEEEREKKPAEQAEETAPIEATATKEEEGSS
# UniProt Q9NZ45: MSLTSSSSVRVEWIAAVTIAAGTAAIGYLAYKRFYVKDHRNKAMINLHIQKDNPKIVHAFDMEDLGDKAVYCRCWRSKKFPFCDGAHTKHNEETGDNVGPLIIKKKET
# UniProt Q7Z7K0: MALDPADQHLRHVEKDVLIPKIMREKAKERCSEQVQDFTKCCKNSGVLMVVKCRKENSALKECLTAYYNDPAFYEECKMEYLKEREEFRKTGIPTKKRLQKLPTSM
# UniProt Q9BW66: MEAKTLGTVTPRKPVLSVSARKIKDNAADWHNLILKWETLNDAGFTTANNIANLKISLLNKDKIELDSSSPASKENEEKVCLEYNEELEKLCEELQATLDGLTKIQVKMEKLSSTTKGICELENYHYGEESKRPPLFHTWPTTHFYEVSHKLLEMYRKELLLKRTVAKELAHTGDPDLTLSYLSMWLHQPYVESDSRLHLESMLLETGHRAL
# UniProt P61024, whole entry, looked up: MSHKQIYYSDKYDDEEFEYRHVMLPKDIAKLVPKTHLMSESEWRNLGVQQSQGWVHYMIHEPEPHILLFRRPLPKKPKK
# UniProt Q8IYT2: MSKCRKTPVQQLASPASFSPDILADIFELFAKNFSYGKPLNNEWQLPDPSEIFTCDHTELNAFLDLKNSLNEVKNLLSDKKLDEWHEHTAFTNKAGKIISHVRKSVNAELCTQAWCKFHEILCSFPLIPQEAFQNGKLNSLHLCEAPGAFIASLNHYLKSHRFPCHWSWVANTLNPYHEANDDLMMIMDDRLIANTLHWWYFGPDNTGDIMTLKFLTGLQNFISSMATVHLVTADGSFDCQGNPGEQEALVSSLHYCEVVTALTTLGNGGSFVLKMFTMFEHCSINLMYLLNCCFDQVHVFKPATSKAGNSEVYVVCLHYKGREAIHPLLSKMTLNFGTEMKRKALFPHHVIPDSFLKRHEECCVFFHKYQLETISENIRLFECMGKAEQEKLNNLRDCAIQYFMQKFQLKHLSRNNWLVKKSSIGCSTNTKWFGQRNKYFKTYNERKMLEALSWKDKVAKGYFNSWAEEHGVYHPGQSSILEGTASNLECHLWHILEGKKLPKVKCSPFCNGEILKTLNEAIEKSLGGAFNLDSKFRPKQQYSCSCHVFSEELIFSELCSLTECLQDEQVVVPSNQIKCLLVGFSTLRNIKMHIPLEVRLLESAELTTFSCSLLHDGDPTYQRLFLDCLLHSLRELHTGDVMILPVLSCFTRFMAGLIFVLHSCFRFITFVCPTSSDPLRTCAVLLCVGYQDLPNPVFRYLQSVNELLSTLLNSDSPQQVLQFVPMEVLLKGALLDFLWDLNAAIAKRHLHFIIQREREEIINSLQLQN
# UniProt Q9NRP2: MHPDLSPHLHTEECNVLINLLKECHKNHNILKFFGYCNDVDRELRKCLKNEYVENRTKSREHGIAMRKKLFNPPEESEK
# UniProt Q96JM3: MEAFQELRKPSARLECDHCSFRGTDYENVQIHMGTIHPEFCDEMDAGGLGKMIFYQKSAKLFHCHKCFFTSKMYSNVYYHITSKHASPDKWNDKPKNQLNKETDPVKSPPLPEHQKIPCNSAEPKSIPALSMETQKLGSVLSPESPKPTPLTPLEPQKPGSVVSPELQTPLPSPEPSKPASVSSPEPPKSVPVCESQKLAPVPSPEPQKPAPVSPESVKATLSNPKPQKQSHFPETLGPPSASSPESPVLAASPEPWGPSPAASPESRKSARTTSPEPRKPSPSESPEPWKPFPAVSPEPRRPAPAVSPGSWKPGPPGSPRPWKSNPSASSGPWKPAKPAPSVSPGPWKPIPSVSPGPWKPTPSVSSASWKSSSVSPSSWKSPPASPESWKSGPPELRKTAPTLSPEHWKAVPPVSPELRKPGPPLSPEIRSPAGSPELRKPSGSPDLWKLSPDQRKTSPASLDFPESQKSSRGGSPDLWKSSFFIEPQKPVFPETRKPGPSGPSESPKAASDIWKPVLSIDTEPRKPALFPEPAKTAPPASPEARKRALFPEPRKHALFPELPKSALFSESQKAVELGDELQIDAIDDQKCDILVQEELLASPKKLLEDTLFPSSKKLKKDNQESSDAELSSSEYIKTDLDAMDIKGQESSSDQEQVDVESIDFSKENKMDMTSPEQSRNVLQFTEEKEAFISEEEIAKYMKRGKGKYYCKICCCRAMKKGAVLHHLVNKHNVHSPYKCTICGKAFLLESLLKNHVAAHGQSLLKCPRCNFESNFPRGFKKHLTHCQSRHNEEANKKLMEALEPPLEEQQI
# UniProt Q9HCK8: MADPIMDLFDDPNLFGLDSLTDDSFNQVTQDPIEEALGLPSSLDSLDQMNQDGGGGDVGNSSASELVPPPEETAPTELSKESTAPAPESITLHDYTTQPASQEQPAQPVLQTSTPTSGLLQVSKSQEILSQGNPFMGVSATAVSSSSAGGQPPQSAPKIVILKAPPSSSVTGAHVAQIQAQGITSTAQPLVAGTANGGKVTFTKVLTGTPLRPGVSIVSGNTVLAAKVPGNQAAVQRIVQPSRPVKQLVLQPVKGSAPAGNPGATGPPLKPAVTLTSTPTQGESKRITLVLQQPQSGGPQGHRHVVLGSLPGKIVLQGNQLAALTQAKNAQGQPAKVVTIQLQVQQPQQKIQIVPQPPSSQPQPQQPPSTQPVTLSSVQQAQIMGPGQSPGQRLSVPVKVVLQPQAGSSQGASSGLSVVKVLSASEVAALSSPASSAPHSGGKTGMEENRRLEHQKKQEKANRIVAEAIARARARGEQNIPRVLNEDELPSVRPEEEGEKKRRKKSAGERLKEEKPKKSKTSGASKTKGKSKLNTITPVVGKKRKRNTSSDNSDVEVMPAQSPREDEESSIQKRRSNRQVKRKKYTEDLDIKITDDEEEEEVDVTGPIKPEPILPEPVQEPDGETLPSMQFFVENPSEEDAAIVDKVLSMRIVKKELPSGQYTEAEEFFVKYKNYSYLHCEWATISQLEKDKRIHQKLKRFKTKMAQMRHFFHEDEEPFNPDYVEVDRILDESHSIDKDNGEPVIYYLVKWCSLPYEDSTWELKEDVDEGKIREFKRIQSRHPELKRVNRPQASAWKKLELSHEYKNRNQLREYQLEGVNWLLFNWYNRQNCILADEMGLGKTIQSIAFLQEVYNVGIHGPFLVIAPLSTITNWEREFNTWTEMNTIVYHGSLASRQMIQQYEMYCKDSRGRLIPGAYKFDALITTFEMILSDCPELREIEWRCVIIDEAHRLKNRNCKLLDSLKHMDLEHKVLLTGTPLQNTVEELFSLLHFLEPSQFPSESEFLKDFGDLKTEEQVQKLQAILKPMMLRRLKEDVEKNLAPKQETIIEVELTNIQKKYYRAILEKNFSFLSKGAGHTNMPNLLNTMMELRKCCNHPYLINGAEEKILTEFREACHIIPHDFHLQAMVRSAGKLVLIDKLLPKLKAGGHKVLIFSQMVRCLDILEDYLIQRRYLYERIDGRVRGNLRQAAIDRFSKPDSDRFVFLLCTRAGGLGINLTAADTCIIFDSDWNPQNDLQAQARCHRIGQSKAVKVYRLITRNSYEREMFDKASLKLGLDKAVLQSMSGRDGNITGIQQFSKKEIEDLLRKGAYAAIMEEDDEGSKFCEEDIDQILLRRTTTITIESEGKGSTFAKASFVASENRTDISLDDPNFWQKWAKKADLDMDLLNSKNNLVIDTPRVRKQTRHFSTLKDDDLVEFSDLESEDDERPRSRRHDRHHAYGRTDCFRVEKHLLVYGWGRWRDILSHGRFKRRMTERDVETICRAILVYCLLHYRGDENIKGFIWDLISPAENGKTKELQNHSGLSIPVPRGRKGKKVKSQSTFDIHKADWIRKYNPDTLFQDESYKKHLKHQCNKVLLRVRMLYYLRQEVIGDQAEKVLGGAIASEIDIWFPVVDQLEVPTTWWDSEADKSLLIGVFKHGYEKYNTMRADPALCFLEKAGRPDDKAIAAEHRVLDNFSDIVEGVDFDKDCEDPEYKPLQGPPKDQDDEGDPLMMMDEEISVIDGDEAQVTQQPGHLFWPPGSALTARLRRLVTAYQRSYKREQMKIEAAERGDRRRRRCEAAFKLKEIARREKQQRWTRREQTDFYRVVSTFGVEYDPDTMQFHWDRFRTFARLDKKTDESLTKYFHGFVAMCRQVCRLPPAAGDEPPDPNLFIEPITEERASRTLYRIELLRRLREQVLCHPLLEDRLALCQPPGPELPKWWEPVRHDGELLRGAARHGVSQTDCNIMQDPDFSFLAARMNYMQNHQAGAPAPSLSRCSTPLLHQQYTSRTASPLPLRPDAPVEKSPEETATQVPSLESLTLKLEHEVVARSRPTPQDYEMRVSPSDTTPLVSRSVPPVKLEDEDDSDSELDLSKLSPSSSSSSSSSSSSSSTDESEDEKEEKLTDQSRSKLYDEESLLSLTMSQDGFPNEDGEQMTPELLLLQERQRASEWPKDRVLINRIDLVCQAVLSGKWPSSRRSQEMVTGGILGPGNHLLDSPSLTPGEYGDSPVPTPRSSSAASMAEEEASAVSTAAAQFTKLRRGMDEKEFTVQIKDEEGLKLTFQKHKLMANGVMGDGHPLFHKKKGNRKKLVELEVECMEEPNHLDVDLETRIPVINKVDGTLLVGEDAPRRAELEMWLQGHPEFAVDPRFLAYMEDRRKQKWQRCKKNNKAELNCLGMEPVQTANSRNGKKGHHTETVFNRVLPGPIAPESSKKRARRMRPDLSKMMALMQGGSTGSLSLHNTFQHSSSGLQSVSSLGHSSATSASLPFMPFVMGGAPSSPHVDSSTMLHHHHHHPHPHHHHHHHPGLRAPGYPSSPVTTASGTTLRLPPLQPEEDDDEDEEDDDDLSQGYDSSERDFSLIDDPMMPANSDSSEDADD
# UniProt Q96DG6: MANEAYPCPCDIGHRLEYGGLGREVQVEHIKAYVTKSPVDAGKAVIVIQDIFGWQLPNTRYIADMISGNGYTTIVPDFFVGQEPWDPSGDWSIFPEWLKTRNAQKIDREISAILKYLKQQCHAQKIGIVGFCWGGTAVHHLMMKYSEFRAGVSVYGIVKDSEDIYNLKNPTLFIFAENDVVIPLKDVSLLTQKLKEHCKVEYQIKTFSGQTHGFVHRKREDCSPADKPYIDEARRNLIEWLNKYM
# UniProt Q9BQ75: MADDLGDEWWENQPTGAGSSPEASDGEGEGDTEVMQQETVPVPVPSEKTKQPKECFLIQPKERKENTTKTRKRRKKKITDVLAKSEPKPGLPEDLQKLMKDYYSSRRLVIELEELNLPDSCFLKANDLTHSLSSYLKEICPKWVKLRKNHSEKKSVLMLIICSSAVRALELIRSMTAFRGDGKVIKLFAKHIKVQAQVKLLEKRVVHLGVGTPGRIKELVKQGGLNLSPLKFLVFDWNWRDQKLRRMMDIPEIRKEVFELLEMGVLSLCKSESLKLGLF
# UniProt Q8IY22: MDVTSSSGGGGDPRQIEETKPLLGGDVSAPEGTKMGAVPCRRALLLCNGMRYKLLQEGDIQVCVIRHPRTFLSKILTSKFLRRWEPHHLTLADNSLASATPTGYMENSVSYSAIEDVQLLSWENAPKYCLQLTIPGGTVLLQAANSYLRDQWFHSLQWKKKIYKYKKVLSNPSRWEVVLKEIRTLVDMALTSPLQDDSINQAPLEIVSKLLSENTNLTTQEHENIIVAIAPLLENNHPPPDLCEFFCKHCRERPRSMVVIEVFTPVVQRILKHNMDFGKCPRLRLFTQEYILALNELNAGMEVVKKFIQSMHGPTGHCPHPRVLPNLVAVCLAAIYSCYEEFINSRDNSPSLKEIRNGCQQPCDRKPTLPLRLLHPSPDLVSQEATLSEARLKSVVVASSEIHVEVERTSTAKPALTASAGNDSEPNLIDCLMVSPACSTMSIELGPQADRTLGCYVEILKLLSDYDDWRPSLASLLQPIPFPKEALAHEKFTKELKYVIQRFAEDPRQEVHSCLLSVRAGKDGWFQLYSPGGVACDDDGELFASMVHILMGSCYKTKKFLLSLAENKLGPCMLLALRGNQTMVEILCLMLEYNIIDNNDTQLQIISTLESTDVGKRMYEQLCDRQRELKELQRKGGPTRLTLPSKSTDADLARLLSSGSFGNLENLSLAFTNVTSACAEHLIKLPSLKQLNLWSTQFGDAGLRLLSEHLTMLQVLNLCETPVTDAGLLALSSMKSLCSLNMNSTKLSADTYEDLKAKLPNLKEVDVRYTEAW
# UniProt Q96FZ7: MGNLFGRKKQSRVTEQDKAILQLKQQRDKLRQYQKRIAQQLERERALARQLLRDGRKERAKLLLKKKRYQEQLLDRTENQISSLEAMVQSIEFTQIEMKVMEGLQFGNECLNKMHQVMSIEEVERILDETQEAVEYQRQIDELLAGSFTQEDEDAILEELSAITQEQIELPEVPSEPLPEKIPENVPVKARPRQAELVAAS
# Some of the results follow.
# What was measured:
# Assay in all cases: log2 fold change, soluble protein after heating vs DMSO (PISA); higher = thermal stabilisation; K562 lysate, 10 uM; active = over 0.2 and 3.5 SD of the protein, either way, in both replicates (recomputed)
# lapatinib = compound: CS(=O)(=O)CCNCc1ccc(-c2ccc3ncnc(Nc4ccc(OCc5cccc(F)c5)c(Cl)c4)c3c2)o1 [lapatinib]
# Procedure, shortened: (§1)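 Values give the log-two fold change in thermal stability against solvent controls, from duplicates. Crude K562 extract at 1 mg/mL protein, made by dounce homogenisation in PBS pH 7.4 with 1 mM MgCl2, was treated with 10 μM compound for 30 min. After 3 min heating across 48°C-58°C, aliquots were pooled, adjusted to 0.5% NP-40 at 4°C and centrifuged at 21,000xg for 90 min. The supernatant was measured by TMTpro 16plex LC-MS/MS with channel sums equalised.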
# pictilisib = compound: CS(=O)(=O)N1CCN(Cc2cc3nc(-c4cccc5[nH]ncc45)nc(N4CCOCC4)c3s2)CC1 [pictilisib]
# Procedure, shortened: as §1
# crizotinib = compound: C[C@@H](Oc1cc(-c2cnn(C3CCNCC3)c2)cnc1N)c1c(Cl)ccc(F)c1Cl [crizotinib]
# Procedure, shortened: as §1
# [1] = compound: C[C@H](C1=CC=C(C=C1)C(=O)NC2=C3C=CNC3=NC=C2)N
# Procedure, shortened: as §1
# duvelisib = compound: C[C@H](Nc1ncnc2nc[nH]c12)c1cc2cccc(Cl)c2c(=O)n1-c1ccccc1 [duvelisib]
# Procedure, shortened: as §1
# gandotinib = compound: Cc1cc(Nc2cc(CN3CCOCC3)c3nc(C)c(Cc4ccc(Cl)cc4F)n3n2)n[nH]1 [gandotinib]
# Procedure, shortened: as §1
# tozasertib = compound: Cc1cc(Nc2cc(N3CCN(C)CC3)nc(Sc3ccc(NC(=O)C4CC4)cc3)n2)n[nH]1 [tozasertib]
# Procedure, shortened: as §1
# doramapimod = compound: Cc1ccc(-n2nc(C(C)(C)C)cc2NC(=O)Nc2ccc(OCCN3CCOCC3)c3ccccc23)cc1 [doramapimod]
# Procedure, shortened: as §1
# bafetinib = compound: Cc1ccc(NC(=O)c2ccc(CN3CC[C@H](N(C)C)C3)c(C(F)(F)F)c2)cc1Nc1nccc(-c2cncnc2)n1 [bafetinib]
# Procedure, shortened: as §1
# [2] = compound: Cc1cccc(CC(=O)N2CCc3c2ccc(-c2cn(C)c4ncnc(N)c24)c3F)n1
# Procedure, shortened: as §1
Target,log2 fold change (lapatinib),log2 fold change (pictilisib),log2 fold change (crizotinib),log2 fold change [1],log2 fold change (duvelisib),log2 fold change (gandotinib),log2 fold change (tozasertib),log2 fold change (doramapimod),log2 fold change (bafetinib),log2 fold change [2]
CHMP4C (UniProt Q96CF2),inactive: 0,inactive: 0.056,inactive: -0.06,inactive: -0.194,inactive: 0.002,inactive: 0.086,inactive: 0.043,inactive: 0.043,inactive: -0.024,inactive: 0.083
CHRAC1 (UniProt Q9NRG0),inactive: -0.029,inactive: -0.022,inactive: 0.019,inactive: -0.027,inactive: 0.045,inactive: -0.025,inactive: 0.03,inactive: -0.046,inactive: 0.035,inactive: 0.032
CIT isoform 4 (UniProt O14578),inactive: -0.055,inactive: -0.003,inactive: -0.01,inactive: 0.047,inactive: -0.02,inactive: -0.097,inactive: 0.028,inactive: 0.006,inactive: -0.023,inactive: 0.002
CHMP2B (UniProt Q9UQN3),inactive: 0.016,inactive: 0.018,inactive: 0.074,inactive: -0.006,inactive: -0.011,inactive: 0.043,inactive: 0.005,inactive: -0.001,inactive: -0.019,inactive: -0.089
CHCHD4 isoform 2 (UniProt Q8N4Q1),inactive: 0.045,inactive: 0.092,inactive: -0.085,inactive: -0.316,inactive: 0.022,inactive: 0.217,inactive: -0.041,inactive: 0.047,inactive: -0.029,inactive: 0.198
CHID1 (UniProt Q9BWS9),inactive: -0.016,inactive: -0.016,inactive: 0.034,inactive: 0.091,inactive: -0.044,inactive: -0.037,inactive: 0.012,inactive: -0.021,inactive: -0.064,inactive: -0.055
CISD1 (UniProt Q9NZ45),inactive: 0.007,inactive: 0,inactive: -0.047,inactive: -0.106,inactive: 0.043,inactive: 0.13,inactive: -0.012,inactive: -0.002,inactive: 0.086,inactive: 0.064
CMC1 (UniProt Q7Z7K0),inactive: -0.007,inactive: 0.058,inactive: 0.029,inactive: 0.001,inactive: 0.098,inactive: -0.017,inactive: 0.066,inactive: 0.038,inactive: 0.103,inactive: 0.118
CHMP3 (UniProt Q9Y3E7),inactive: 0.019,inactive: -0.018,inactive: -0.003,inactive: 0.01,inactive: 0.006,inactive: 0.059,inactive: 0,inactive: 0.017,inactive: 0.005,inactive: -0.002
CINP isoform 3 (UniProt Q9BW66),inactive: -0.059,inactive: 0.011,inactive: -0.028,active: -0.325,inactive: 0.062,inactive: 0.018,inactive: 0.056,inactive: 0.036,inactive: -0.059,inactive: 0.208
CKS1B (UniProt P61024),inactive: 0.039,inactive: 0.002,inactive: 0.094,active: 0.302,inactive: -0.045,inactive: -0.183,inactive: 0.047,inactive: 0.023,inactive: 0.068,active: -0.324
CIC (UniProt I3L2J0),inactive: -0.074,inactive: -0.02,inactive: -0.002,inactive: -0.052,inactive: -0.047,inactive: 0.006,inactive: 0.02,inactive: -0.036,inactive: -0.08,inactive: 0.037
CHMP1A (UniProt Q9HD42),inactive: 0.027,inactive: 0.002,inactive: 0.041,inactive: 0.007,inactive: -0.027,inactive: 0.027,inactive: 0.013,inactive: 0.006,inactive: 0.01,inactive: -0.05
CKMT2 (UniProt D6RHV3),inactive: -0.21,,,,,,,,,
CMTR2 (UniProt Q8IYT2),inactive: -0.235,,,,,,,,,
CMC2 (UniProt Q9NRP2),inactive: -0.001,inactive: -0.044,inactive: 0.046,inactive: 0.041,inactive: 0.014,inactive: -0.094,inactive: 0.012,inactive: -0.019,inactive: -0.033,inactive: 0.012

# Some values from the entries so far.
# Entry of CIT isoform 4 (UniProt O14578) under log2 fold change (gandotinib): inactive: -0.097
# Entry of CHMP1A (UniProt Q9HD42) under log2 fold change (doramapimod): inactive: 0.006

# (continued)

Target,log2 fold change (lapatinib),log2 fold change (pictilisib),log2 fold change (crizotinib),log2 fold change [1],log2 fold change (duvelisib),log2 fold change (gandotinib),log2 fold change (tozasertib),log2 fold change (doramapimod),log2 fold change (bafetinib),log2 fold change [2]
CHAMP1 (UniProt Q96JM3),inactive: 0.026,inactive: -0.038,inactive: 0.023,inactive: 0.023,inactive: -0.004,inactive: -0.008,inactive: -0.031,inactive: -0.012,inactive: 0.042,inactive: -0.07
CHD8 (UniProt Q9HCK8),inactive: 0.091,inactive: 0.061,inactive: 0.006,inactive: -0.045,inactive: -0.022,inactive: -0.035,inactive: -0.021,inactive: 0.039,inactive: -0.087,inactive: 0.095
CMPK1 (UniProt P30085),inactive: 0.024,inactive: 0.016,inactive: 0.005,inactive: -0.052,inactive: 0.031,inactive: 0.024,inactive: 0.002,inactive: 0.003,inactive: 0.013,inactive: 0.014
CMBL (UniProt Q96DG6),inactive: -0.024,inactive: 0.076,inactive: 0.065,inactive: -0.162,inactive: 0.031,inactive: 0.127,inactive: 0.016,inactive: -0.021,inactive: -0.028,inactive: -0.001
CHMP1B (UniProt Q7LBR1),inactive: -0.054,inactive: -0.012,inactive: 0.037,inactive: 0.028,inactive: 0.05,inactive: -0.007,inactive: 0.012,inactive: 0.035,inactive: 0.069,inactive: -0.041
CKAP5 (UniProt Q14008),inactive: 0.001,inactive: 0.013,inactive: -0.017,inactive: 0.004,inactive: 0.001,inactive: -0.053,inactive: 0.01,inactive: 0.011,inactive: 0.005,inactive: 0.015
CHMP7 (UniProt Q8WUX9),inactive: 0.024,inactive: -0.104,inactive: 0.034,inactive: -0.064,inactive: -0.049,inactive: 0.049,inactive: -0.039,inactive: 0.029,inactive: -0.174,inactive: -0.003
CLCN5 isoform 2 (UniProt P51795),inactive: 0.057,,,,,,,,,
CHD4 isoform 2 (UniProt Q14839),inactive: 0.003,inactive: -0.004,inactive: -0.007,inactive: -0.05,inactive: -0.038,inactive: 0.005,inactive: 0.011,inactive: 0.021,inactive: -0.05,inactive: 0.05
CMSS1 (UniProt Q9BQ75),inactive: 0.012,inactive: 0.016,inactive: -0.021,inactive: 0.176,inactive: -0.001,inactive: -0.086,inactive: 0.009,inactive: 0.015,inactive: -0.026,inactive: -0.015
CMIP (UniProt Q8IY22),inactive: 0.002,inactive: -0.013,inactive: -0.001,inactive: 0.046,inactive: -0.035,inactive: -0.062,inactive: 0.017,inactive: -0.094,inactive: -0.064,inactive: 0.002
CHD1L (UniProt Q86WJ1),inactive: -0.037,inactive: -0.045,inactive: -0.115,inactive: -0.011,inactive: 0.013,inactive: -0.062,inactive: 0.052,inactive: 0.128,inactive: -0.055,inactive: 0.038
CISD2 (UniProt Q8N5K1),inactive: -0.036,inactive: -0.036,inactive: 0.022,inactive: -0.032,inactive: -0.01,inactive: 0.061,inactive: 0.01,inactive: -0.026,inactive: 0.025,inactive: 0.021
CHMP6 (UniProt Q96FZ7),inactive: 0.022,inactive: -0.104,inactive: -0.048,inactive: -0.028,inactive: -0.016,inactive: 0.04,inactive: 0.04,inactive: 0.135,inactive: -0.007,inactive: 0.038
CHCHD3 (UniProt Q9NX63),inactive: -0.014,inactive: -0.007,inactive: 0.004,inactive: 0.013,inactive: -0.032,inactive: 0.002,inactive: 0.025,inactive: -0.001,inactive: -0.001,inactive: -0.025
CMAS (UniProt Q8NFW8),inactive: -0.015,inactive: -0.006,inactive: -0.005,inactive: -0.069,inactive: -0.025,inactive: 0.018,inactive: -0.035,inactive: -0.009,inactive: -0.047,inactive: 0.022
